Consider one substance from article PMC3711072.

Chains of the proteins cited; added tags and fusions are not shown. Residues count along the entry.
UniProt P55774, residues 21-89: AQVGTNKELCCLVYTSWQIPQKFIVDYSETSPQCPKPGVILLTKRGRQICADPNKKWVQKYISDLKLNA
UniProt P0C8E7, residues 21-114: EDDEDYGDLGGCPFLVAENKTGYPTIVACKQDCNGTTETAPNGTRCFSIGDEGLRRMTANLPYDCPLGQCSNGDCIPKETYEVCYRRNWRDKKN

The test concerns the target CC chemokine ligand 18 (CCL18) (human) (UniProt P55774). Nature of the test: far-Western, overlay or dot blot; Dot-Blot of CCL18 with Evasin-1, -3 and -4; data not shown; format not told; both purified.

Results are given in words; binding and its absence hold for the method and conditions named. Some results given as binding are weak or reduced against the parent protein; the word gives no strength.

With Evasin-1 (from UniProt P0C8E7 21-114), the binding result is on record as “binds”.
